Test [1] addresses T1, human P2X4 receptor subunit, full length, C-terminally labelled with GFP or RFP (human) (UniProt Q99571).
T1 sequence: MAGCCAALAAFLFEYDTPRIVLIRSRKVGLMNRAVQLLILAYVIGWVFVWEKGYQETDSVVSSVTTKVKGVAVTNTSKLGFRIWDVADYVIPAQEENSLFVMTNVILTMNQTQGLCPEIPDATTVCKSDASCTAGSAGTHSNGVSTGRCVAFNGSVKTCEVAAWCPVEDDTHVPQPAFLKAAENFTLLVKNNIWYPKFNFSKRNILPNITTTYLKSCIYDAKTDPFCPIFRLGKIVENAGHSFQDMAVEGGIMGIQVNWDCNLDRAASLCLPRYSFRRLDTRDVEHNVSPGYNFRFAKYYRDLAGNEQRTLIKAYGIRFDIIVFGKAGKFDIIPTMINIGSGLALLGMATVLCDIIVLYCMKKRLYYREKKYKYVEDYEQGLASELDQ
Nature of the test: FRET or BRET; donor (GFP) dequenching after acceptor (RFP) photobleaching; GFP- and RFP-labelled subunits coexpressed in intact Xenopus laevis oocytes; confocal laser scanning microscope, at the oocyte pole or equator, in ORi pH 7.4; FRET efficiency by extrapolation to complete acceptor bleaching.

Test [2] has as its target T2, human P2X7 receptor subunit, full length, C-terminally labelled with GFP or RFP (human) (UniProt Q99572).
T2 sequence: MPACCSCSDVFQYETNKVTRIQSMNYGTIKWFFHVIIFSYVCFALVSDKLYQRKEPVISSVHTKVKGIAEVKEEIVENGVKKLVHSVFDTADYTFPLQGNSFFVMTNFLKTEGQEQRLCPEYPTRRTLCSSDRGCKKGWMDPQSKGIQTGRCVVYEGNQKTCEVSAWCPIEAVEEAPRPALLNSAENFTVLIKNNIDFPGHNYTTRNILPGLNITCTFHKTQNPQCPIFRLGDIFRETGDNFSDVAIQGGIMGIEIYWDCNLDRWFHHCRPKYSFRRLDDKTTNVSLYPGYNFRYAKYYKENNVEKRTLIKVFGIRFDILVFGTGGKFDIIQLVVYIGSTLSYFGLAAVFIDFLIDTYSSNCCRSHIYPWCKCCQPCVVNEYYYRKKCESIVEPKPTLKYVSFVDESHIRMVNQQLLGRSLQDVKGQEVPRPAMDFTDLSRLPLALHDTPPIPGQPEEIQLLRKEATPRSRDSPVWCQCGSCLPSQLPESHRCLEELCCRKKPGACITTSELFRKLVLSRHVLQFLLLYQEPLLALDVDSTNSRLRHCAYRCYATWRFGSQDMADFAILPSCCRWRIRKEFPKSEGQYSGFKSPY
The description is as above.

Results are given in words; binding and its absence hold for the method and conditions named. In cells and extracts the contact can be indirect. Some binding calls cover weakened binding; strength is not graded here. Tags and fused reporters may be left off the sequences shown.

B1: human P2X4 receptor subunit, full length, C-terminally labelled with GFP or RFP (receptor, UniProt Q99571-1 1-388)
chain: MAGCCAALAAFLFEYDTPRIVLIRSRKVGLMNRAVQLLILAYVIGWVFVWEKGYQETDSVVSSVTTKVKGVAVTNTSKLGFRIWDVADYVIPAQEENSLFVMTNVILTMNQTQGLCPEIPDATTVCKSDASCTAGSAGTHSNGVSTGRCVAFNGSVKTCEVAAWCPVEDDTHVPQPAFLKAAENFTLLVKNNIWYPKFNFSKRNILPNITTTYLKSCIYDAKTDPFCPIFRLGKIVENAGHSFQDMAVEGGIMGIQVNWDCNLDRAASLCLPRYSFRRLDTRDVEHNVSPGYNFRFAKYYRDLAGNEQRTLIKAYGIRFDIIVFGKAGKFDIIPTMINIGSGLALLGMATVLCDIIVLYCMKKRLYYREKKYKYVEDYEQGLASELDQ
B1: the binding result in test [1] is on record as “binds”.

B2: C-terminally truncated human P2X7 subunit hP2X7^1-408, C-terminally labelled with GFP or RFP (domain or fragment, UniProt Q99572-1 1-408)
chain: MPACCSCSDVFQYETNKVTRIQSMNYGTIKWFFHVIIFSYVCFALVSDKLYQRKEPVISSVHTKVKGIAEVKEEIVENGVKKLVHSVFDTADYTFPLQGNSFFVMTNFLKTEGQEQRLCPEYPTRRTLCSSDRGCKKGWMDPQSKGIQTGRCVVYEGNQKTCEVSAWCPIEAVEEAPRPALLNSAENFTVLIKNNIDFPGHNYTTRNILPGLNITCTFHKTQNPQCPIFRLGDIFRETGDNFSDVAIQGGIMGIEIYWDCNLDRWFHHCRPKYSFRRLDDKTTNVSLYPGYNFRYAKYYKENNVEKRTLIKVFGIRFDILVFGTGGKFDIIQLVVYIGSTLSYFGLAAVFIDFLIDTYSSNCCRSHIYPWCKCCQPCVVNEYYYRKKCESIVEPKPTLKYVSFVDESH
Consider B2, for which the binding result in test [1] and in test [2] was “binds” throughout.

B3: human glycine receptor α1 subunit labelled with GFP after the signal peptide (SP-GFP-hGLYRA1) (receptor, UniProt P23415-2 29-449)
chain: ARSAPKPMSPSDFLDKLMGRTSGYDARIRPNFKGPPVNVSCNIFINSFGSIAETTMDYRVNIFLRQQWNDPRLAYNEYPDDSLDLDPSMLDSIWKPDLFFANEKGAHFHEITTDNKLLRISRNGNVLYSIRITLTLACPMDLKNFPMDVQTCIMQLESFGYTMNDLIFEWQEQGAVQVADGLTLPQFILKEEKDLRYCTKHYNTGKFTCIEARFHLERQMGYYLIQMYIPSLLIVILSWISFWINMDAAPARVGLGITTVLTMTTQSSGSRASLPKVSYVKAIDIWMAVCLLFVFSALLEYAAVNFVSRQHKELLRFRRKRRHHKEDEAGEGRFNFSAYGMGPACLQAKDGISVKGANNSNTTNPPPAPSKSPEEMRKLFIQRAKKIDKISRIGFPMAFLIFNMFYWIIYKIVRREDVHNQ
In the case of B3, the binding result in test [1] is “no binding”.

The values are drawn from article PMC5702805.
